Data taken from PMC11612400.
No constants are given. Whether binding was seen depends on the method and setting. For some of these results: Binding seen in cells or lysates may run through a third protein. Some binding calls cover weakened binding; strength is not graded here. For some of these results: Where a sequence is shown, tags or fusion partners need not be part of it.

By UniProt entry, the sequences of proteins in these tests, tags left out.
UniProt P67936: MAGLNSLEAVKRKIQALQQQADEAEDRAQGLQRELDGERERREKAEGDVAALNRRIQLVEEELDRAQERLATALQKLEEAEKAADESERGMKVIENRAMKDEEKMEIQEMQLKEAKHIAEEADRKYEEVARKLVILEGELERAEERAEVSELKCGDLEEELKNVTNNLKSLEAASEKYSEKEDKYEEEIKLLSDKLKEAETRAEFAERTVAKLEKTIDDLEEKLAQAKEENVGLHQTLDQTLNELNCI
UniProt P14618: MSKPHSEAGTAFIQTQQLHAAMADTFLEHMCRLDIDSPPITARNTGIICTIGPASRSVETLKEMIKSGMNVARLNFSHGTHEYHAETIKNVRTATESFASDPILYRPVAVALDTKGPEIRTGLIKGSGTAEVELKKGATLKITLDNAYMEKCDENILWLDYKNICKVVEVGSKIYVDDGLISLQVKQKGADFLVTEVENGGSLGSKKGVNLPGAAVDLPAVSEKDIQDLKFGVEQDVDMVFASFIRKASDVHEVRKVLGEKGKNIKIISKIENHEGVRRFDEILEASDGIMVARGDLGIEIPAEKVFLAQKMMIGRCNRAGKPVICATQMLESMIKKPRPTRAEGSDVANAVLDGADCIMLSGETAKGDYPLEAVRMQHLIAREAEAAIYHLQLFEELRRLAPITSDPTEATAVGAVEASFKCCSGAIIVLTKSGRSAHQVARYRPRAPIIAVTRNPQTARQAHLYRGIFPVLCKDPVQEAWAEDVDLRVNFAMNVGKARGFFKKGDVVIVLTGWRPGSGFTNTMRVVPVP

What was measured:
TPM4-GB = TPM4-GB (UniProt P67936); assay: fluorescent protein exchange (FPX); TPM4-GB, PFKM-GA and PKM2-RA expressed in MDA-MB-231 cells; green (GA/GB) and red (RA/GB) fluorescence imaged before (isosmotic) and after 100 mM sorbitol for 3 min
[1] = biological target: TPM4-AcGFP (tropomyosin 4 fused to AcGFP) (UniProt P67936); assay: proximity ligation; Duolink PLA on fixed MDA-MB-231 cells expressing TPM4-AcGFP, hyperosmotic condition (100 mM sorbitol for 3 min)
TPM4-GFP1–10 = TPM4-GFP1–10 (UniProt P67936); assay: split reporter; split-GFP system, TPM4-GFP1–10 and PFKM-GFP11 expressed in MDA-MB-231 cells, before (isosmotic) and after 100 mM sorbitol for 3 min

binding (TPM4-GB)	also measured	Molecule
binds		PKM2-RA (from UniProt P14618 1-531) (enzyme)
	binding [1]: binds	PFKM (phosphofructokinase muscle type), endogenous (enzyme, UniProt P08237 1-780) MTHEEHHAAKTLGIGKAIAVLTSGGDAQGMNAAVRAVVRVGIFTGARVFFVHEGYQGLVDGGDHIKEATWESVSMMLQLGGTVIGSARCKDFREREGRLRAAYNLVKRGITNLCVIGGDGSLTGADTFRSEWSDLLSDLQKAGKITDEEATKSSYLNIVGLVGSIDNDFCGTDMTIGTDSALHRIMEIVDAITTTAQSHQRTFVLEVMGRHCGYLALVTSLSCGADWVFIPECPPDDDWEEHLCRRLSETRTRGSRLNIIIVAEGAIDKNGKPITSEDIKNLVVKRLGYDTRVTVLGHVQRGGTPSAFDRILGSRMGVEAVMALLEGTPDTPACVVSLSGNQAVRLPLMECVQVTKDVTKAMDEKKFDEALKLRGRSFMNNWEVYKLLAHVRPPVSKSGSHTVAVMNVGAPAAGMNAAVRSTVRIGLIQGNRVLVVHDGFEGLAKGQIEEAGWSYVGGWTGQGGSKLGTKRTLPKKSFEQISANITKFNIQGLVIIGGFEAYTGGLELMEGRKQFDELCIPFVVIPATVSNNVPGSDFSVGADTALNTICTTCDRIKQSAAGTKRRVFIIETMGGYCGYLATMAGLAAGADAAYIFEEPFTIRDLQANVEHLVQKMKTTVKRGLVLRNEKCNENYTTDFIFNLYSEEGKGIFDSRKNVLGHMQQGGSPTPFDRNFATKMGAKAMNWMSGKIKESYRNGRIFANTPDSGCVLGMRKRALVFQPVAELKDQTDFEHRIPKEQWWLKLRPILKILAKYEIDLDTSDHAHLEHITRKRSGEAAV
	binding (TPM4-GFP1–10): binds	PFKM-GFP11 (enzyme, UniProt P08237 1-780) MTHEEHHAAKTLGIGKAIAVLTSGGDAQGMNAAVRAVVRVGIFTGARVFFVHEGYQGLVDGGDHIKEATWESVSMMLQLGGTVIGSARCKDFREREGRLRAAYNLVKRGITNLCVIGGDGSLTGADTFRSEWSDLLSDLQKAGKITDEEATKSSYLNIVGLVGSIDNDFCGTDMTIGTDSALHRIMEIVDAITTTAQSHQRTFVLEVMGRHCGYLALVTSLSCGADWVFIPECPPDDDWEEHLCRRLSETRTRGSRLNIIIVAEGAIDKNGKPITSEDIKNLVVKRLGYDTRVTVLGHVQRGGTPSAFDRILGSRMGVEAVMALLEGTPDTPACVVSLSGNQAVRLPLMECVQVTKDVTKAMDEKKFDEALKLRGRSFMNNWEVYKLLAHVRPPVSKSGSHTVAVMNVGAPAAGMNAAVRSTVRIGLIQGNRVLVVHDGFEGLAKGQIEEAGWSYVGGWTGQGGSKLGTKRTLPKKSFEQISANITKFNIQGLVIIGGFEAYTGGLELMEGRKQFDELCIPFVVIPATVSNNVPGSDFSVGADTALNTICTTCDRIKQSAAGTKRRVFIIETMGGYCGYLATMAGLAAGADAAYIFEEPFTIRDLQANVEHLVQKMKTTVKRGLVLRNEKCNENYTTDFIFNLYSEEGKGIFDSRKNVLGHMQQGGSPTPFDRNFATKMGAKAMNWMSGKIKESYRNGRIFANTPDSGCVLGMRKRALVFQPVAELKDQTDFEHRIPKEQWWLKLRPILKILAKYEIDLDTSDHAHLEHITRKRSGEAAV
binds		PFKM-GA (enzyme, UniProt P08237 1-780) MTHEEHHAAKTLGIGKAIAVLTSGGDAQGMNAAVRAVVRVGIFTGARVFFVHEGYQGLVDGGDHIKEATWESVSMMLQLGGTVIGSARCKDFREREGRLRAAYNLVKRGITNLCVIGGDGSLTGADTFRSEWSDLLSDLQKAGKITDEEATKSSYLNIVGLVGSIDNDFCGTDMTIGTDSALHRIMEIVDAITTTAQSHQRTFVLEVMGRHCGYLALVTSLSCGADWVFIPECPPDDDWEEHLCRRLSETRTRGSRLNIIIVAEGAIDKNGKPITSEDIKNLVVKRLGYDTRVTVLGHVQRGGTPSAFDRILGSRMGVEAVMALLEGTPDTPACVVSLSGNQAVRLPLMECVQVTKDVTKAMDEKKFDEALKLRGRSFMNNWEVYKLLAHVRPPVSKSGSHTVAVMNVGAPAAGMNAAVRSTVRIGLIQGNRVLVVHDGFEGLAKGQIEEAGWSYVGGWTGQGGSKLGTKRTLPKKSFEQISANITKFNIQGLVIIGGFEAYTGGLELMEGRKQFDELCIPFVVIPATVSNNVPGSDFSVGADTALNTICTTCDRIKQSAAGTKRRVFIIETMGGYCGYLATMAGLAAGADAAYIFEEPFTIRDLQANVEHLVQKMKTTVKRGLVLRNEKCNENYTTDFIFNLYSEEGKGIFDSRKNVLGHMQQGGSPTPFDRNFATKMGAKAMNWMSGKIKESYRNGRIFANTPDSGCVLGMRKRALVFQPVAELKDQTDFEHRIPKEQWWLKLRPILKILAKYEIDLDTSDHAHLEHITRKRSGEAAV
